The values below come from publication PMC6461443.

Protein sequences, listed by entry. Tags and fused reporters are not part of them.
UniProt P04133: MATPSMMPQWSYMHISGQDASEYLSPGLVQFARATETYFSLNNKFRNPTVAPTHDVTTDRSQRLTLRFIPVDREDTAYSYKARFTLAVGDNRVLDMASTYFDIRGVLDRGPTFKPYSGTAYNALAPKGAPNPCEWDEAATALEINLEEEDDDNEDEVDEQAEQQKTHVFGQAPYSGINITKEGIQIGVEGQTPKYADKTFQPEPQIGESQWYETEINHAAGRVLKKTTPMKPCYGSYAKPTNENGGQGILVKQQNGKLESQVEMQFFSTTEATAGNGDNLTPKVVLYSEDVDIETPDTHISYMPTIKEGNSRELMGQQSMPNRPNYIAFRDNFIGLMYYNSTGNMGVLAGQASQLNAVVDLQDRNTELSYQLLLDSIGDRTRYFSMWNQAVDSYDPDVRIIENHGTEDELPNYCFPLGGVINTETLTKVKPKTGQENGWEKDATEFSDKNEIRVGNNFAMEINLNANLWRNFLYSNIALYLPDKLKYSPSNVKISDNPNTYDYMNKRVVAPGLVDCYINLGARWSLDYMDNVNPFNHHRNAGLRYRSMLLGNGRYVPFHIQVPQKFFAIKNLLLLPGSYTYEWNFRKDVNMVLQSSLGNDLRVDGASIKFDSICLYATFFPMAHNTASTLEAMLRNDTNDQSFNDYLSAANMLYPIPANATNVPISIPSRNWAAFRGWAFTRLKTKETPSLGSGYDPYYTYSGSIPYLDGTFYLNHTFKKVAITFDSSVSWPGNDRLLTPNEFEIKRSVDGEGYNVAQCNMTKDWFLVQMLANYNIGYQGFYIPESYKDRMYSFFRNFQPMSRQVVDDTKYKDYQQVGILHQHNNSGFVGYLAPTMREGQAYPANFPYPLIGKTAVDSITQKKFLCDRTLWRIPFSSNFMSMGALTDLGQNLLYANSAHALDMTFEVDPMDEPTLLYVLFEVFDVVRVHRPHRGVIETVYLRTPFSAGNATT

Results are given in words; binding and its absence hold for the method and conditions named.

This test has as its target Ad5 hexon, in the virion (human adenovirus 5) (UniProt P04133). Nature of the test: co-IP; both purified.

B1: Ad5 fiber protein (protein, UniProt P11818 1-581)
chain: MKRARPSEDTFNPVYPYDTETGPPTVPFLTPPFVSPNGFQESPPGVLSLRLSEPLVTSNGMLALKMGNGLSLDEAGNLTSQNVTTVSPPLKKTKSNINLEISAPLTVTSEALTVAAAAPLMVAGNTLTMQSQAPLTVHDSKLSIATQGPLTVSEGKLALQTSGPLTTTDSSTLTITASPPLTTATGSLGIDLKEPIYTQNGKLGLKYGAPLHVTDDLNTLTVATGPGVTINNTSLQTKVTGALGFDSQGNMQLNVAGGLRIDSQNRRLILDVSYPFDAQNQLNLRLGQGPLFINSAHNLDINYNKGLYLFTASNNSKKLEVNLSTAKGLMFDATAIAINAGDGLEFGSPNAPNTNPLKTKIGHGLEFDSNKAMVPKLGTGLSFDSTGAITVGNKNNDKLTLWTTPAPSPNCRLNAEKDAKLTLVLTKCGSQILATVSVLAVKGSLAPISGTVQSAHLIIRFDENGVLLNNSFLDPEYWNFRNGDLTEGTAYTNAVGFMPNLSAYPKSHGKTAKSNIVSQVYLNGDKTKPVTLTITLNGTQETGDTTPSAYSMSFSWDWSGHNYINEIFATSSYTFSYIAQE
B1: the binding entry is “no binding (condition: after heating Ad5 to 49°C)”.
